Measured values published in the supplement of paper PMC10849652.
The list shows a part of the results.

Chains of the proteins cited; added tags and fusions are not shown. Lines headed by an entry give the natural chain unless they say otherwise; changes in a name come on top.
UniProt Q8IXK2: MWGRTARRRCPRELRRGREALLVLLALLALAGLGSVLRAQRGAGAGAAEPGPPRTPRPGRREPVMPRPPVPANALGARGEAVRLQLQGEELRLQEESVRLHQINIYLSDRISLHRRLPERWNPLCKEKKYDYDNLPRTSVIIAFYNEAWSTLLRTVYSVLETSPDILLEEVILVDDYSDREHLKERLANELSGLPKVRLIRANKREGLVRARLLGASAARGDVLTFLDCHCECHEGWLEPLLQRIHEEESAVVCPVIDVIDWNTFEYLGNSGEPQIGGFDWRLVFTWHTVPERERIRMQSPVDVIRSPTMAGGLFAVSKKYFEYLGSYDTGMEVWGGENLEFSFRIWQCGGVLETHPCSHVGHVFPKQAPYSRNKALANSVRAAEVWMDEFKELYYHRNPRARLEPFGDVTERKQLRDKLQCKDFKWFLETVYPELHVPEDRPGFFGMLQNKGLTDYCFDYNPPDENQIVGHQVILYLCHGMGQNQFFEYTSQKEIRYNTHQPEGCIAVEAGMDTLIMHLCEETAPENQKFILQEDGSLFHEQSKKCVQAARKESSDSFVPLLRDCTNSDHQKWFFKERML
UniProt Q8N9F7: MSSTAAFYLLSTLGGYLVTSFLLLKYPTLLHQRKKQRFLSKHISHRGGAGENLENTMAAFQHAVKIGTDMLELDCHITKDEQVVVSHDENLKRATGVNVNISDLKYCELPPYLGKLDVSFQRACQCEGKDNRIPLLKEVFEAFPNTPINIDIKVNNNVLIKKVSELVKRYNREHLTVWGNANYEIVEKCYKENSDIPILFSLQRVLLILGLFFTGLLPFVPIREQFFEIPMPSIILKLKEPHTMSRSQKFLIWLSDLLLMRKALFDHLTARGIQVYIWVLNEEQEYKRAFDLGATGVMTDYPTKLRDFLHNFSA
UniProt Q96RP9: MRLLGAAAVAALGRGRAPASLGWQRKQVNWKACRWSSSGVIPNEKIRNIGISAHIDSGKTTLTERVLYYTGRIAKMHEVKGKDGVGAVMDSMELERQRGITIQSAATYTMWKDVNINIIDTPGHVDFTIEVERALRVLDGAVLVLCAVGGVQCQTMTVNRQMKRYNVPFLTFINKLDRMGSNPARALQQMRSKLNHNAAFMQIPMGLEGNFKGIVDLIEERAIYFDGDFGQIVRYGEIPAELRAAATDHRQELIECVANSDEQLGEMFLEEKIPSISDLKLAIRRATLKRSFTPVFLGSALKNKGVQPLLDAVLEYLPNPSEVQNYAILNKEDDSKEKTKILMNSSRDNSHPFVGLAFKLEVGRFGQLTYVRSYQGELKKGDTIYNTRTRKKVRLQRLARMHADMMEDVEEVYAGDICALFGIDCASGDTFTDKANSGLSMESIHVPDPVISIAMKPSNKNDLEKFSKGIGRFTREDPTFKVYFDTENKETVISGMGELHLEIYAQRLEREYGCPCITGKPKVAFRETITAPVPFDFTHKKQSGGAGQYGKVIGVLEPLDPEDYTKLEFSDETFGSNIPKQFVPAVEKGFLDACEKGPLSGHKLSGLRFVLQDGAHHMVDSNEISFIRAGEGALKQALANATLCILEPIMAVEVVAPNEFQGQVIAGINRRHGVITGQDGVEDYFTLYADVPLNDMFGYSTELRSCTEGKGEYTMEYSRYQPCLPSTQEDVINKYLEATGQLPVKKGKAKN
UniProt Q8NB37: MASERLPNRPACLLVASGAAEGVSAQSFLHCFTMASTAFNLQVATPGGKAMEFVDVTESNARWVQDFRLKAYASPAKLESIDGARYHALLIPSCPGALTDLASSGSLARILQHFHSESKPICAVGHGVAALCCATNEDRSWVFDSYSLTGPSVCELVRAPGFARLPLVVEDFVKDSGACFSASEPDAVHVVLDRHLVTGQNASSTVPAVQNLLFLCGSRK
UniProt Q96AE4: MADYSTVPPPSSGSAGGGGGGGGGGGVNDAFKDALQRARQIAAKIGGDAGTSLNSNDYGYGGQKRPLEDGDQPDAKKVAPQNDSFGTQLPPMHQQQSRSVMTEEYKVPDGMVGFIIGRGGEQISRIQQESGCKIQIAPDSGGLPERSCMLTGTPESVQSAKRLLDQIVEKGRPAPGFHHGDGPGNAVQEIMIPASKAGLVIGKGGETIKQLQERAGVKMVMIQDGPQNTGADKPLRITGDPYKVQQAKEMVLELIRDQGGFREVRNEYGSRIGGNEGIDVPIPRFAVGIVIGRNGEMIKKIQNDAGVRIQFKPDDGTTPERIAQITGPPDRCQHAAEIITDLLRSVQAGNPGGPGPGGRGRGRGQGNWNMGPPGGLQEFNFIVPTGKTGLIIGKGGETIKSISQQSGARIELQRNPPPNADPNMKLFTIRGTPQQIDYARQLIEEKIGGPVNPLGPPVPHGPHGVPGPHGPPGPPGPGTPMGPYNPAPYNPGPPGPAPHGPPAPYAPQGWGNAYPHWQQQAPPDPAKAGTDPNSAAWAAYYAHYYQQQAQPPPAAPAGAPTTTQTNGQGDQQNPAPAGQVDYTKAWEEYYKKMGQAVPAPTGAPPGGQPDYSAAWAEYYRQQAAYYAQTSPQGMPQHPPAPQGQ
UniProt Q9UN86: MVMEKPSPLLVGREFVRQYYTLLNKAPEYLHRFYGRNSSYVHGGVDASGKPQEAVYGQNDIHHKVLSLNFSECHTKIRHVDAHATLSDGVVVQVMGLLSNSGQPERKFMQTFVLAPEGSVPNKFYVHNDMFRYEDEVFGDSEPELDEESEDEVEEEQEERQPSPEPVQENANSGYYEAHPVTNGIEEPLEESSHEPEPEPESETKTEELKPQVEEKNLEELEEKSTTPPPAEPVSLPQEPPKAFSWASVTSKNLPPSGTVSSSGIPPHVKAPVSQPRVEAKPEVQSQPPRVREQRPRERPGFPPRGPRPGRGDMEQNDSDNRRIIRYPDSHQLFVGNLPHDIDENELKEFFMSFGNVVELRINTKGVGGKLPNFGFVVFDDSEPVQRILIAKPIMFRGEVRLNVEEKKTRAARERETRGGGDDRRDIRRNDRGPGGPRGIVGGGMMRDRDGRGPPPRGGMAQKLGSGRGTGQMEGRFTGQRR
UniProt Q8TEQ6: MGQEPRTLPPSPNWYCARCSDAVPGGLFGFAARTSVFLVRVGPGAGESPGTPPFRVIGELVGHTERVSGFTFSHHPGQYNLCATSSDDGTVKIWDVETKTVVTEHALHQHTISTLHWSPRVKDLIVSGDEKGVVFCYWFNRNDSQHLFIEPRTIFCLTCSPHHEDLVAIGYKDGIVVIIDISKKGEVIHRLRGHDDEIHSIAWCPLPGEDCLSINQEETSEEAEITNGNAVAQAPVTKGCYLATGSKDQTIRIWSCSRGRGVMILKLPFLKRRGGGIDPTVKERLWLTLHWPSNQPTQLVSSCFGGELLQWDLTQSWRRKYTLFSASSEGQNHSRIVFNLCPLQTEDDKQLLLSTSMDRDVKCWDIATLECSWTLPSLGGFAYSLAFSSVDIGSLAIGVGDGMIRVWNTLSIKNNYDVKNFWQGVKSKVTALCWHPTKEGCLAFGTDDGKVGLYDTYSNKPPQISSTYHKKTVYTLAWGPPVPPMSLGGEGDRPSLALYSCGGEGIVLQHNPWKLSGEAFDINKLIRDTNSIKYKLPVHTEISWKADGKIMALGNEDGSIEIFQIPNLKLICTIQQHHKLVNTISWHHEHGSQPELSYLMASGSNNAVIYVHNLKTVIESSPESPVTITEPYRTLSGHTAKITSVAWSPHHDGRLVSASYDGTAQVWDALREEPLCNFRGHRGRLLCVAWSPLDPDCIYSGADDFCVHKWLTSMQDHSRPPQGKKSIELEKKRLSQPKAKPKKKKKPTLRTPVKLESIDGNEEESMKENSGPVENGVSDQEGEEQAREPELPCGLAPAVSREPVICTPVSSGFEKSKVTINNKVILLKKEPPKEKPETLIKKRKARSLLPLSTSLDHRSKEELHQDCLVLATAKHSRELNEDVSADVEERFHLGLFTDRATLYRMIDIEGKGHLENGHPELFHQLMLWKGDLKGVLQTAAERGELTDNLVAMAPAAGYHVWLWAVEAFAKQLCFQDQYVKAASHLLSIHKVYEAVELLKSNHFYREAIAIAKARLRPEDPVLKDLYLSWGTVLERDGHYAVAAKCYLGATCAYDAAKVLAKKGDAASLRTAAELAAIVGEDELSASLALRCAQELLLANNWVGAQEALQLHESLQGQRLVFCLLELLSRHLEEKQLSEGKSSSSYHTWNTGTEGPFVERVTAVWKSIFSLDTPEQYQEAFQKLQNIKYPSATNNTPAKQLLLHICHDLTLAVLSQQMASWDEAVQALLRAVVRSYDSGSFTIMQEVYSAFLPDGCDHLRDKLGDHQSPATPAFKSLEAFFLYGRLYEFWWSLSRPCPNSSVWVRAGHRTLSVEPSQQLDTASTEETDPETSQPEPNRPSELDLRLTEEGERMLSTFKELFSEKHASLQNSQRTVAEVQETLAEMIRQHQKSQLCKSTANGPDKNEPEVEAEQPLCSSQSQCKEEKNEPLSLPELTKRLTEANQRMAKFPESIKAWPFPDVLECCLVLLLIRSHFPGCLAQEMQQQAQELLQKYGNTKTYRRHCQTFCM
UniProt O15117, whole entry, looked up: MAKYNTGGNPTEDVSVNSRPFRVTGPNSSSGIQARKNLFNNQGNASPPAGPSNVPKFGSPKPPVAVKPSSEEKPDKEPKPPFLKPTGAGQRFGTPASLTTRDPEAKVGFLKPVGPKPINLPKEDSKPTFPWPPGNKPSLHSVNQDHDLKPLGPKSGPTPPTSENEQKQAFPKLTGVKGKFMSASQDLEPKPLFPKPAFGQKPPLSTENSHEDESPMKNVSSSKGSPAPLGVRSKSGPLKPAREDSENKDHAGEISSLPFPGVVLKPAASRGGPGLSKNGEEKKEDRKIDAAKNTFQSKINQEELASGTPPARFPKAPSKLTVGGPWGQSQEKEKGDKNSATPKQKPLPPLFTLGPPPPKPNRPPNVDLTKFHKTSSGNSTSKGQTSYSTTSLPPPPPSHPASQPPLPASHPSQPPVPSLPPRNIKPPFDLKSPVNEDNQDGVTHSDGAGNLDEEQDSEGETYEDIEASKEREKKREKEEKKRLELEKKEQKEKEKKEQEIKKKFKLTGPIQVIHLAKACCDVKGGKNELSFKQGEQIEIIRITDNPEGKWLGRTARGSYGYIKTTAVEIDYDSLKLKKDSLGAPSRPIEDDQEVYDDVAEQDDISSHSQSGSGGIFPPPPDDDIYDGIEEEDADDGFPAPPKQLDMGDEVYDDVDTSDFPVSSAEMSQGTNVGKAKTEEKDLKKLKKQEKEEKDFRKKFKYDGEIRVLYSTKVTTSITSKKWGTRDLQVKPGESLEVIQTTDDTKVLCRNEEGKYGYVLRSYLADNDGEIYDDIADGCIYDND
UniProt P04062: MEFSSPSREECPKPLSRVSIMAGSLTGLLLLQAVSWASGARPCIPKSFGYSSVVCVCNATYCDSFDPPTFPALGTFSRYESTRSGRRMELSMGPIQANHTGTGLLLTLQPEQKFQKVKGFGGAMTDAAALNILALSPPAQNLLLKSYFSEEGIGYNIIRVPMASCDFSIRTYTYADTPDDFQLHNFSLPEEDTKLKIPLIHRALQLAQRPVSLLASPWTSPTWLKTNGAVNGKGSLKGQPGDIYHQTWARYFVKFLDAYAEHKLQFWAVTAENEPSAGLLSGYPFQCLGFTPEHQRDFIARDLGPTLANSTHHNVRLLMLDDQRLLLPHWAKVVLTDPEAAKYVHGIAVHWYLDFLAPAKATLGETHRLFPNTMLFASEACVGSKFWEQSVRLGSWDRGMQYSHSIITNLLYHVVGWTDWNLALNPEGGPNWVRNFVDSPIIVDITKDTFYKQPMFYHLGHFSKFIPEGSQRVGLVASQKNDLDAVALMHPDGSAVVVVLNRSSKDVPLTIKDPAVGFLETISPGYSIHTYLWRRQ
UniProt Q16595: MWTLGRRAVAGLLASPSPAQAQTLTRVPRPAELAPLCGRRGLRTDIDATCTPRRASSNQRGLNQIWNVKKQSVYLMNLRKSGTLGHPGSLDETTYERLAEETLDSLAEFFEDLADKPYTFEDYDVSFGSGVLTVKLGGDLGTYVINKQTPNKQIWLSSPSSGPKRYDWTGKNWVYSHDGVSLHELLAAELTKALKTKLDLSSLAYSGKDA
UniProt Q9BTY2: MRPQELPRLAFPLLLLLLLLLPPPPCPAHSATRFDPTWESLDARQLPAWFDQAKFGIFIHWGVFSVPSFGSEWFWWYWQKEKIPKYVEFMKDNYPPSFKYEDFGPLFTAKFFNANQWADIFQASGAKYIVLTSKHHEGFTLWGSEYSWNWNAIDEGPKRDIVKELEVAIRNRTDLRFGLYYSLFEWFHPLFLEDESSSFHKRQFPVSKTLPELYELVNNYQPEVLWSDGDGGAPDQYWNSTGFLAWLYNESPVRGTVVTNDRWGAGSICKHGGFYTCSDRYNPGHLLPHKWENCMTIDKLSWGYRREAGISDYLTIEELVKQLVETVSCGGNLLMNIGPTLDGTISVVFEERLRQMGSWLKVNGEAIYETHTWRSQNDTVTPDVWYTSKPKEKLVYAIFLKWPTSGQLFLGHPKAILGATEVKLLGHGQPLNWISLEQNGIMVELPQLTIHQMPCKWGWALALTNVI

How the values were obtained:
Assay in all cases: log2 fold change, soluble protein after heating vs DMSO (PISA); higher = thermal stabilisation; K562 lysate, 10 uM; active = over 0.2 and 3.5 SD of the protein, either way, in both replicates (recomputed)
alvocidib = compound: CN1CC[C@H](c2c(O)cc(O)c3c(=O)cc(-c4ccccc4Cl)oc23)[C@H](O)C1 [alvocidib]
Outline: (§1)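 The values are log-two fold changes in thermal stability compared with solvent controls and come from duplicates. They were obtained by TMTpro 16plex LC-MS/MS, with channel sums equalised, on the supernatant after 21,000xg for 90 min. That supernatant came from crude K562 extract at 1 mg/mL protein treated with 10 μM compound for 30 min, heated for 3 min across 48°C-58°C, pooled and brought to 0.5% NP-40 at 4°C.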

Tubastatin A = compound: CN1CCc2c(c3ccccc3n2Cc2ccc(C(=O)NO)cc2)C1 [Tubastatin A]
Outline: as §1

[1] = compound: CNC(=O)C1=CC=CC=C1NC2=NC(=NC=C2Cl)NC3=C(C=C(C=C3)N4CCOCC4)OC
Outline: as §1

defactinib = compound: CNC(=O)c1ccc(Nc2ncc(C(F)(F)F)c(NCc3nccnc3N(C)S(C)(=O)=O)n2)cc1 [defactinib]
Outline: as §1

[2] = compound: CNc1nc(-c2ccc3c(N)n[nH]c3c2)cc(N2C[C@@H](C(=O)NC3CCCCC3)CC[C@H]2C)n1
Outline: as §1

encorafenib = compound: COC(=O)N[C@@H](C)CNc1nccc(-c2cn(C(C)C)nc2-c2cc(Cl)cc(NS(C)(=O)=O)c2F)n1 [encorafenib]
Outline: as §1

[3] = compound: COC(=O)[C@H](CCSC)NC(=O)C1=C(C=C(C=C1)NC[C@H](CS)N)C2=CC=CC=C2
Outline: as §1

alisertib = compound: COc1cc(Nc2ncc3c(n2)-c2ccc(Cl)cc2C(c2c(F)cccc2OC)=NC3)ccc1C(=O)O [alisertib]
Outline: as §1

[4] = compound: COc1cc2nc(-c3cc(F)ccc3O)nc(N[C@@H]3CNC[C@H]3C(C)(C)O)c2cc1OC
Outline: as §1

gefitinib = compound: COc1cc2ncnc(Nc3ccc(F)c(Cl)c3)c2cc1OCCCN1CCOCC1 [gefitinib]
Outline: as §1

lapatinib = compound: CS(=O)(=O)CCNCc1ccc(-c2ccc3ncnc(Nc4ccc(OCc5cccc(F)c5)c(Cl)c4)c3c2)o1 [lapatinib]
Outline: as §1

pictilisib = compound: CS(=O)(=O)N1CCN(Cc2cc3nc(-c4cccc5[nH]ncc45)nc(N4CCOCC4)c3s2)CC1 [pictilisib]
Outline: as §1

crizotinib = compound: C[C@@H](Oc1cc(-c2cnn(C3CCNCC3)c2)cnc1N)c1c(Cl)ccc(F)c1Cl [crizotinib]
Outline: as §1

[5] = compound: C[C@H](C1=CC=C(C=C1)C(=O)NC2=C3C=CNC3=NC=C2)N
Outline: as §1

duvelisib = compound: C[C@H](Nc1ncnc2nc[nH]c12)c1cc2cccc(Cl)c2c(=O)n1-c1ccccc1 [duvelisib]
Outline: as §1

gandotinib = compound: Cc1cc(Nc2cc(CN3CCOCC3)c3nc(C)c(Cc4ccc(Cl)cc4F)n3n2)n[nH]1 [gandotinib]
Outline: as §1

tozasertib = compound: Cc1cc(Nc2cc(N3CCN(C)CC3)nc(Sc3ccc(NC(=O)C4CC4)cc3)n2)n[nH]1 [tozasertib]
Outline: as §1

doramapimod = compound: Cc1ccc(-n2nc(C(C)(C)C)cc2NC(=O)Nc2ccc(OCCN3CCOCC3)c3ccccc23)cc1 [doramapimod]
Outline: as §1

bafetinib = compound: Cc1ccc(NC(=O)c2ccc(CN3CC[C@H](N(C)C)C3)c(C(F)(F)F)c2)cc1Nc1nccc(-c2cncnc2)n1 [bafetinib]
Outline: as §1

[6] = compound: Cc1cccc(CC(=O)N2CCc3c2ccc(-c2cn(C)c4ncnc(N)c24)c3F)n1
Outline: as §1

Measured: log2 fold change

GALNT12 (UniProt Q8IXK2)
inactive: alvocidib 0.015 | Tubastatin A 0.083 | [1] -0.016 | defactinib -0.059 | [2] -0.036 | encorafenib -0.007 | [3] 0.031 | alisertib -0.017 | [4] -0.023 | gefitinib 0.113 | lapatinib -0.06 | pictilisib 0.042 | crizotinib -0.028 | [5] -0.096 | duvelisib -0.143 | gandotinib -0.05 | tozasertib 0.025 | doramapimod 0.082 | bafetinib -0.109 | [6] 0.032

FPGT (UniProt O14772)
inactive: alvocidib 0.031 | Tubastatin A -0.111 | [1] -0.011 | defactinib 0.008 | [2] -0.02 | encorafenib 0.011 | [3] 0.058 | alisertib 0.002 | [4] 0.002 | gefitinib 0.013 | lapatinib 0.005 | pictilisib 0.019 | crizotinib -0.077 | duvelisib 0.006 | gandotinib -0.085 | tozasertib 0.012 | doramapimod 0.054 | bafetinib -0.043 | [6] -0.012
active: [5] 0.319

GDPD1 (UniProt Q8N9F7)
active: [3] -0.272
inactive: alvocidib 0 | Tubastatin A -0.023 | [1] 0.006 | defactinib -0.03 | [2] 0.046 | encorafenib 0.059 | alisertib -0.018 | [4] -0.027 | gefitinib -0.035 | lapatinib 0.03 | pictilisib -0.042 | crizotinib -0.157 | [5] 0.001 | duvelisib 0.049 | gandotinib 0.164 | tozasertib -0.029 | doramapimod 0.027 | bafetinib 0.022 | [6] 0.007

GFM1 (UniProt Q96RP9)
inactive: alvocidib 0.009 | Tubastatin A -0.031 | [1] 0.011 | defactinib 0.008 | [2] 0.004 | encorafenib -0.049 | [3] 0.147 | alisertib 0.008 | [4] -0.015 | gefitinib -0.009 | lapatinib 0.007 | pictilisib -0.015 | crizotinib -0.041 | [5] -0.018 | duvelisib -0.052 | gandotinib 0.003 | tozasertib 0.029 | doramapimod 0.023 | bafetinib -0.032 | [6] 0.006

GALC (UniProt P54803)
inactive: alvocidib -0.002 | Tubastatin A -0.024 | [1] -0.017 | defactinib 0.034 | [2] 0.051 | encorafenib 0.031 | [3] 0.015 | alisertib 0 | [4] 0.039 | gefitinib -0.008 | lapatinib 0.041 | pictilisib 0.016 | crizotinib -0.062 | [5] -0.179 | duvelisib 0.04 | gandotinib 0.024 | tozasertib -0.006 | doramapimod 0.103 | bafetinib -0.048 | [6] 0.041

GAB1 isoform 2 (UniProt Q13480)
inactive: alvocidib -0.059 | Tubastatin A -0.026 | [1] -0.009 | defactinib -0.008 | [2] 0.023 | encorafenib -0.019 | [3] 0.006 | alisertib -0.008 | [4] 0.013 | gefitinib 0.075 | lapatinib -0.023 | pictilisib 0.002 | crizotinib -0.025 | [5] -0.133 | duvelisib 0.063 | gandotinib 0.036 | tozasertib 0.01 | doramapimod 0.085 | bafetinib -0.072 | [6] 0.15

GATD1 (UniProt Q8NB37)
inactive: alvocidib -0.03 | Tubastatin A 0.077 | [1] -0.084 | defactinib -0.036 | [2] -0.05 | encorafenib 0.018 | [3] -0.015 | alisertib -0.006 | [4] -0.033 | gefitinib -0.004 | lapatinib -0.074 | pictilisib -0.007 | crizotinib -0.068 | [5] -0.115 | duvelisib 0.025 | gandotinib 0.041 | tozasertib -0.015 | doramapimod 0.01 | bafetinib -0.006 | [6] 0.062

FUBP1 (UniProt Q96AE4)
inactive: alvocidib -0.08 | Tubastatin A 0.082 | [1] 0.093 | defactinib -0.003 | [2] 0.064 | encorafenib 0.014 | [3] 0.034 | alisertib 0.185 | [4] -0.022 | gefitinib -0.135 | lapatinib 0.014 | pictilisib 0 | crizotinib -0.117 | [5] -0.178 | duvelisib -0.008 | gandotinib 0.126 | tozasertib -0.063 | doramapimod -0.216 | bafetinib -0.004 | [6] 0.043

G3BP2 (UniProt Q9UN86)
inactive: alvocidib 0.022 | Tubastatin A 0.01 | [1] -0.011 | defactinib -0.039 | [2] 0.043 | encorafenib -0.01 | [3] 0.072 | alisertib 0.003 | [4] -0.002 | gefitinib -0.057 | lapatinib -0.006 | pictilisib -0.006 | crizotinib -0.004 | [5] 0.059 | duvelisib 0.017 | gandotinib -0.077 | tozasertib -0.005 | doramapimod -0.031 | bafetinib -0.006 | [6] -0.042

GEMIN5 (UniProt Q8TEQ6)
inactive: alvocidib 0.023 | Tubastatin A -0.21 | [1] 0.027 | defactinib 0.031 | [2] -0.007 | encorafenib 0.011 | [3] 0.057 | alisertib 0.014 | [4] -0.019 | gefitinib -0.032 | lapatinib -0.025 | pictilisib -0.006 | crizotinib -0.069 | [5] -0.029 | duvelisib 0.001 | gandotinib -0.087 | tozasertib 0.009 | doramapimod 0.012 | bafetinib -0.053 | [6] 0.017

FYB1 isoform 3 (UniProt O15117)
inactive: alvocidib -0.012 | Tubastatin A -0.001 | [1] 0.013 | defactinib 0.033 | [2] 0.065 | encorafenib -0.005 | [3] -0.035 | alisertib -0.012 | [4] -0.014 | gefitinib -0.029 | lapatinib 0.045 | pictilisib -0.008 | crizotinib -0.082 | [5] 0.147 | duvelisib 0.01 | gandotinib -0.051 | tozasertib 0.052 | doramapimod -0.007 | bafetinib -0.062 | [6] -0.058

GBA (UniProt P04062)
inactive: alvocidib -0.007 | Tubastatin A -0.019 | [1] -0.005 | defactinib 0.127 | [2] -0.164 | encorafenib 0.069 | [3] 0.001 | alisertib -0.031 | [4] -0.08 | gefitinib 0.034 | lapatinib 0.054 | pictilisib 0.034 | crizotinib 0.01 | [5] 0.013 | duvelisib 0.024 | gandotinib 0.092 | tozasertib -0.141 | doramapimod 0.01 | bafetinib -0.124 | [6] -0.01

GAMT (UniProt Q14353)
inactive: alvocidib 0.025 | Tubastatin A -0.059 | [1] 0.055 | defactinib 0.068 | [2] 0.038 | encorafenib -0.028 | [3] 0.039 | alisertib 0.018 | [4] -0.021 | gefitinib -0.035 | lapatinib 0.02 | pictilisib -0.028 | crizotinib 0 | [5] 0.02 | duvelisib 0.082 | gandotinib 0.002 | tozasertib -0.02 | doramapimod 0.09 | bafetinib 0.062 | [6] -0.046

2 successive records from above, for reference:
GALC (UniProt P54803)
inactive: alvocidib -0.002 | Tubastatin A -0.024 | [1] -0.017 | defactinib 0.034 | [2] 0.051 | encorafenib 0.031 | [3] 0.015 | alisertib 0 | [4] 0.039 | gefitinib -0.008 | lapatinib 0.041 | pictilisib 0.016 | crizotinib -0.062 | [5] -0.179 | duvelisib 0.04 | gandotinib 0.024 | tozasertib -0.006 | doramapimod 0.103 | bafetinib -0.048 | [6] 0.041

GAB1 isoform 2 (UniProt Q13480)
inactive: alvocidib -0.059 | Tubastatin A -0.026 | [1] -0.009 | defactinib -0.008 | [2] 0.023 | encorafenib -0.019 | [3] 0.006 | alisertib -0.008 | [4] 0.013 | gefitinib 0.075 | lapatinib -0.023 | pictilisib 0.002 | crizotinib -0.025 | [5] -0.133 | duvelisib 0.063 | gandotinib 0.036 | tozasertib 0.01 | doramapimod 0.085 | bafetinib -0.072 | [6] 0.15

(listing goes on)

FXN (UniProt Q16595)
inactive: alvocidib -0.034 | Tubastatin A 0.081 | [1] 0.022 | defactinib 0.023 | [2] 0.027 | encorafenib 0 | [3] -0.025 | alisertib 0.042 | [4] -0.032 | gefitinib -0.158 | lapatinib 0.062 | pictilisib -0.052 | crizotinib 0.071 | [5] 0.113 | duvelisib -0.002 | gandotinib -0.077 | tozasertib 0.057 | doramapimod -0.038 | bafetinib 0.006 | [6] -0.058

FUCA2 (UniProt Q9BTY2)
inactive: alvocidib -0.086 | Tubastatin A 0.039 | [1] -0.017 | defactinib -0.01 | [2] 0.037 | encorafenib 0.021 | [3] -0.052 | alisertib 0.007 | [4] 0.013 | gefitinib 0 | lapatinib -0.003 | pictilisib -0.038 | crizotinib 0.009 | [5] -0.186 | duvelisib -0.004 | gandotinib 0.122 | tozasertib -0.042 | doramapimod 0.01 | bafetinib -0.013 | [6] 0.08

GBF1 (UniProt Q92538)
inactive: alvocidib 0 | Tubastatin A -0.041 | [1] 0.032 | defactinib 0.007 | [2] 0.004 | encorafenib 0.036 | [3] -0.031 | alisertib 0.002 | [4] -0.008 | gefitinib -0.03 | lapatinib -0.015 | pictilisib -0.023 | crizotinib -0.064 | [5] -0.026 | duvelisib -0.002 | gandotinib -0.108 | tozasertib 0.014 | doramapimod -0.006 | bafetinib -0.043 | [6] 0.049
